Measured values as given in patent US8063209B2, “Phosphonyl ester conjugates as prodrugs” (priority 2004, dated 2011).
Some results were stated once for a whole list of compounds, not compound by compound. Some ranges recur; such a range may be that of the whole group of compounds.

Assay: Single pass intestinal perfusion with portal vein blood collection
Assay type: in vivo
Conditions: rat single pass intestinal perfusion with portal vein collection
Method: Male albino Sprague-Dawley rats, 9-10 weeks old and weighing 250-400 g were used in the study. Prior to each experiment, the rats were fasted for 18 h with free access to water. The rats were anesthetized with an i.m. injection of ketamine/xylazinelbutorphanol (87, 6, and 0.2 mg/kg body weight, respectively). The abdomen was opened by a midline incision of 4-5 cm. A suitable intestinal segment of approximately 10-20 cm was cannulated on two ends and connected to a syringe pump that guided the solution through a water bath of 37° C. This isolated segment was then rinsed with buffer at the respective pH at a flow-rate of 0.5 ml/min in order to clean out any residual debris. […]
Rat plasma samples were acidified and processed with solid phase extraction. […] Samples were analyzed using a LC-MS/MS system (Micromass Quattro II, HP 1100). […]
From the plasma concentration of compound, the mesenteric permeability was determined by substitution into Eq. (1), Flux=(A)(Pe-mes)(Ci) Eq. (1) where Flux is equal to the portal blood flow (estimated at 1 ml/min in the rat) X the steady state mesenteric blood concentration of cidofovir-based compound, A is the absorptive area of the intestine (estimated at 12.56 cm^2 in the rat intestine), Pe-mes is the mesenteric permeability (cm/s), and Ci is the starting concentration of the drug in the perfusate ([…]).

## COC(=O)[C@H](COP1(=O)CO[C@@H](Cn2ccc(N)nc2=O)CO1)NC(=O)[C@@H](N)CC(C)C (mixture of isomers) [Compound 7, cHPMPC-Leu-Ser(OMe)]
  increase in permeability relative to cidofovir and cyclic cidofovir: 10-20 fold
